Data taken from PubChem BioAssay AID330 (DTP/NCI, 2004).
The list is a part of this screen's results and no random one: it gathers tests that were run many times, whatever their T/C, doses with no T/C, and many T/C values between a quarter and a half above the control. Further doses and runs are listed elsewhere. T/C gives the treated animals as a percentage of the vehicle group. Some doses have a count of surviving animals in place of a T/C: the source files T/C as zero there, which appears to mark a toxic dose or a test without result, not a measured value. Some doses without a T/C left all or most animals alive at the check, yet need not have been tolerated: the source hardly ever lists a survival T/C far under the control, and the zero likely stands for such cases as well. Survivors were counted at the toxicity check, usually on the fifth day, unless a day is given; later deaths do not show. Schedules are NCI's codes, read here as Q, the interval in days (D) or hours (H), X, the number of doses. For survival time, this PubChem deposit counts one and a half times the control or more as active, and values a quarter to a half above the control carry no call in these data; other NCI protocols may use other cut-offs. Some T/C values carry the count of animals alive at the toxicity check (mostly the fifth day); where none is given, no animal had died by that day. Some entries were tested several times; the results are listed from low to high.

Test system: P388 leukemia ip, CD2F1 mice, survival T/C
Assay: NCI In Vivo Anticancer Drug Screen. Data for tumor model P388 Leukemia (intraperitoneal) in CD2F1 (CDF1) mice
Settings: T/C endpoint: median survival time, higher T/C = longer survival
[1] = dose: 50.0 mg/kg/injection, schedule: Q01DX009 (ip), vehicle: Klucel (hydroxypropylcellulose) (HPC)
[2] = dose: 100.0 mg/kg/injection, schedule: Q01DX009 (ip), vehicle: Klucel (hydroxypropylcellulose) (HPC)
[3] = dose: 200.0 mg/kg/injection, schedule: Q01DX009 (ip), vehicle: Klucel (hydroxypropylcellulose) (HPC)

COc1ccc2c(c1)CCC1(C)CC(=O)C=C21 (stereo unspecified)
survivor count [1]: 6 of 6 | survivor count [2]: 6 of 6 | survivor count [3]: 6 of 6

CCc1nc(N)nc(N)c1-c1ccc(N(C)C)c(N=[N+]=[N-])c1
survivor count (dose: 120.0 mg/kg/injection, schedule: Q01DX005 (ip), vehicle: Klucel (hydroxypropylcellulose) (HPC)): 0 of 6 | survivor count (dose: 240.0 mg/kg/injection, schedule: Q01DX005 (ip), vehicle: Klucel (hydroxypropylcellulose) (HPC)): 0 of 6

[B-]1n2ccc[n+]2[B-]n2ccc[n+]21
survivor count (dose: 60.0 mg/kg/injection, schedule: Q01DX005 (ip), vehicle: saline with Tween-80): 6 of 6 | survivor count (dose: 120.0 mg/kg/injection, schedule: Q01DX005 (ip), vehicle: saline with Tween-80): 2 of 6 | survivor count (dose: 240.0 mg/kg/injection, schedule: Q01DX005 (ip), vehicle: saline with Tween-80): 0 of 6

COC(=O)C[C@](O)(CCC(C)(C)O)C(=O)O[C@@H]1C(OC)=C[C@]23CCCN2CCc2cc4c(cc2[C@H]13)OCO4
T/C (dose: 2.0 mg/kg/injection, schedule: Q01DX009 (ip), vehicle: saline): 127 % of control | survivor count (dose: 4.0 mg/kg/injection, schedule: Q01DX009 (ip), vehicle: saline): 1 of 6

C=C1C(=O)OC2C[C@@]3(C)CC(O)C[C@H](C)C3=CC12 (stereo partly specified)
survivor count (dose: 80.0 mg/kg/injection, schedule: Q01DX009 (ip), vehicle: distilled water + Tween-80 + alcohol): 2 of 6 | survivor count (dose: 150.0 mg/kg/injection, schedule: Q01DX009 (ip), vehicle: distilled water + Tween-80 + alcohol): 4 of 4 | survivor count (dose: 300.0 mg/kg/injection, schedule: Q01DX009 (ip), vehicle: distilled water + Tween-80 + alcohol): 0 of 4

NCCC[Se]CC(N)C(=O)O (stereo unspecified)
survivor count (dose: 200.0 mg/kg/injection, schedule: Q04DX003 (ip), vehicle: saline): 4 of 6 | survivor count (dose: 400.0 mg/kg/injection, schedule: Q04DX003 (ip), vehicle: saline): 6 of 6

CC(=O)Nc1ccc(S(=O)(=O)Nc2cnccn2)cc1
survivor count (dose: 200.0 mg/kg/injection, schedule: Q01DX001 (ip), vehicle: saline with Tween-80): 3 of 6 | survivor count (dose: 400.0 mg/kg/injection, schedule: Q01DX001 (ip), vehicle: saline with Tween-80): 0 of 6

CNc1c([N+](=O)[O-])cc2[nH]cnc2c1[N+](=O)[O-]
survivor count (dose: 100.0 mg/kg/injection, schedule: Q04DX003 (ip), vehicle: saline with Tween-80): 0 of 6 | survivor count (dose: 200.0 mg/kg/injection, schedule: Q04DX003 (ip), vehicle: saline with Tween-80): 0 of 6 | survivor count (dose: 400.0 mg/kg/injection, schedule: Q04DX003 (ip), vehicle: saline with Tween-80): 0 of 6

CCCCCCCCCCCC[n+]1ccc(-c2cc[n+](CCCCCCCCCCCC)cc2)cc1
survivor count (dose: 50.0 mg/kg/injection, schedule: Q01DX009 (ip), vehicle: saline): 0 of 6 | survivor count (dose: 100.0 mg/kg/injection, schedule: Q01DX009 (ip), vehicle: saline): 0 of 6 | survivor count (dose: 200.0 mg/kg/injection, schedule: Q01DX009 (ip), vehicle: saline): 0 of 6

OCC[Se][Se]CCO
survivor count (dose: 5.0 mg/kg/injection, schedule: Q01DX009 (ip), vehicle: Klucel (hydroxypropylcellulose) (HPC)): 0 of 6 | survivor count (dose: 10.0 mg/kg/injection, schedule: Q01DX009 (ip), vehicle: Klucel (hydroxypropylcellulose) (HPC)): 0 of 6 | survivor count (dose: 20.0 mg/kg/injection, schedule: Q01DX009 (ip), vehicle: Klucel (hydroxypropylcellulose) (HPC)): 0 of 6 | survivor count [1]: 0 of 6 | survivor count [2]: 0 of 6 | survivor count [3]: 0 of 6

CSC(=S)N/N=C(\C)Cc1ccccn1
survivor count (dose: 100.0 mg/kg/injection, schedule: Q01DX005 (ip), vehicle: saline with Tween-80): 0 of 6 | survivor count (dose: 200.0 mg/kg/injection, schedule: Q01DX005 (ip), vehicle: saline with Tween-80): 0 of 6

C=C(C)C(=NC(C)C)Nc1ccccc1
T/C (dose: 50.0 mg/kg/injection, schedule: Q01DX005 (ip), vehicle: Klucel (hydroxypropylcellulose) (HPC), evaluated on day 20): 104 % of control | T/C (dose: 50.0 mg/kg/injection, schedule: Q01DX005 (ip), vehicle: Klucel (hydroxypropylcellulose) (HPC), evaluated on day 30): 103 [5 of 6 alive], 107, 118 % of control | survivor count (dose: 100.0 mg/kg/injection, schedule: Q01DX005 (ip), vehicle: Klucel (hydroxypropylcellulose) (HPC)): 1 of 6 | survivor count (dose: 200.0 mg/kg/injection, schedule: Q01DX005 (ip), vehicle: Klucel (hydroxypropylcellulose) (HPC)): 0 of 6

CN[C@H]1CC[C@]23C[C@]24CC[C@]2(C)[C@@H]([C@H](C)N(C)C)CC[C@@]2(C)[C@@H]4CC[C@H]3C1(C)C
survivor count (dose: 100.0 mg/kg/injection, schedule: Q01DX009 (ip), vehicle: saline with Tween-80): 4 of 6
